From PubChem BioAssay AID504467 (National Center for Advancing Translational Sciences (NCATS), 2011)
About 7,700 (2.3%) of roughly 330,000 compounds were called active. Inconclusive means that the source gave no clear call. Such entries were picked first, then a sample of the others. Calls come from the whole dose curve; as a rule, active = well fitted inhibition curve with a large enough effect; inconclusive = small, poorly fitted or top-dose-only effect, or effect the other way; inactive = flat fitted curve, though single readings scatter. Potencies of inconclusive entries are doubtful fits and often do not repeat.

experiment: qHTS screen for small molecules that inhibit ELG1-dependent DNA repair in human embryonic kidney (HEK293T) cells expressing luciferase-tagged ELG1; details: HEK293T ELG1-luciferase reporter, luminescence, 16 h, DNA damage induced by 5-fluorouridine; activity change, negative = inhibition: at 46.1 µM (top of the series); note: nearly all actives have a fitted effect of over 55% in size
In short: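 Luminescence from the luciferase reporter, measured 30 min after ONE-Glo reagent at room temperature, was the read-out. Beforehand, 2,000 cells per well were exposed for 16 hr at 37 °C to 5-fluorouridine together with compound or vehicle.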
% is set by controls: 0 for no effect and ±100 for the full control effect; potency is the fitted concentration of half-maximal effect.

Row | Structure (SMILES) | Potency | activity change, negative = inhibition
1 | O=C(Nc1ccon1)c1ccc(OC2CCCC2)cc1 | inconclusive: 4.11 µM [activator, partial curve] | –
2 | Cc1ccc(NC(=O)C(Nc2ccccc2)c2ccccc2)cc1 (stereo not drawn) | – | inactive: 3.53%
3 | O=C(/C=C/c1ccc(Cl)c([N+](=O)[O-])c1)Nc1cccc(NC(=O)c2ccco2)c1 | inconclusive: 29.1 µM [inhibitor, single point] | –
4 | CCCCC(=O)Nc1ccc(NC(=O)c2cnccn2)cn1 | inconclusive: 20.6 µM [activator, single point] | –
5 | Cc1nnc2ccc(N3CCCCC3)nn12 | inconclusive: 18.3 µM [activator, single point] | –
6 | Cc1cc(C(=O)NN)n[nH]1 | inconclusive: 29.1 µM [activator, single point] | –
7 | Cc1c[n+](CC(=O)c2ccccc2)cs1 | inconclusive: 15.8 µM [inhibitor, single point] | –
8 | CN(CC(=O)Nc1cc(S(=O)(=O)N2CCOCC2)ccc1Cl)C1CCS(=O)(=O)C1 (stereo not drawn) | – | inactive: 5.57%
9 | COC(=O)CSc1nc2cc(C)ccc2cc1C#N | inconclusive: 1.46 µM [activator, full curve, poor fit] | –
10 | O=C(NCc1nc2ccccc2[nH]1)c1cccc(S(=O)(=O)N2CCOCC2)c1 | – | inactive: 13.8%
11 | Cc1cccnc1NC(=S)NC(=O)/C=C/c1ccco1 | inconclusive: 18.4 µM [activator, partial curve] | –
12 | COc1cccc(C2/C(=C(/O)c3ccc4c(c3)OCO4)C(=O)C(=O)N2CCN2CCOCC2)c1 (stereo not drawn) | inconclusive: 32.6 µM [activator, single point] | –
13 | COc1ccc(C(=O)NC2CCN(CC(=O)Nc3cccc(OC)c3)CC2)cc1 | – | inactive: -10%
14 | CC(=O)N1CCC(=NNc2ccnc3cc(Cl)ccc23)CC1 | – | inactive: -8.29%
15 | CCOc1ccc(S(=O)(=O)NCc2cccnc2)cc1 | inconclusive: 8.2 µM [inhibitor, partial curve] | –
16 | CCC(C)[C@H]1COCCS(=O)(=O)N1Cc1ccc(Br)cc1 (stereo partly drawn) | – | inactive: -11%
17 | C/C(=N\NC(=O)c1cc([N+](=O)[O-])cc([N+](=O)[O-])c1)c1ccco1 | inconclusive: 18.3 µM [inhibitor, single point] | –
18 | COc1ccc(S(=O)(=O)N2CCC(n3cnc4ccccc43)CC2)cc1 | inconclusive: 25.9 µM [inhibitor, single point] | –
19 | Cc1ccc(C(=O)O/N=C(\N)Cc2cccs2)cc1[N+](=O)[O-] | inconclusive: 2.31 µM [activator, full curve] | –
20 | N/C(=N\N=C\c1cccc(O)c1)c1nonc1N | inconclusive: 7.3 µM [activator, partial curve] | –
21 | O=C(O)COc1ccccc1/C=C1\SC(=S)N(/N=C/c2ccccc2O)C1=O | inconclusive: 18.4 µM [activator, partial curve, poor fit] | –
22 | CCOC(=O)/C(C#N)=C/Nc1ccsc1C(C)=O | inconclusive: 25.9 µM [activator, single point] | –

Rewritten with each value named: entries from further up.
COc1ccc(C(=O)NC2CCN(CC(=O)Nc3cccc(OC)c3)CC2)cc1
  activity change, negative = inhibition: inactive: -10%
C/C(=N\NC(=O)c1cc([N+](=O)[O-])cc([N+](=O)[O-])c1)c1ccco1
  Potency: inconclusive: 18.3 µM [inhibitor, single point]

(next part)

Row | Structure (SMILES) | Potency | activity change, negative = inhibition
23 | CC(=O)N/C(=C\c1ccccc1)C(=O)OC(C)C(=O)c1ccccc1 (stereo not drawn) | – | inactive: 5.49%
24 | COC(=O)c1cc(C(=O)N2CCN(c3ccccc3OC)CC2)cc([N+](=O)[O-])c1 | – | inactive: 2.78%
25 | CC1(C)CC(=O)c2sc(NC(=O)c3ccccc3)nc2C1 | inconclusive: 1.64 µM [activator, partial curve] | –
26 | CCOC(=O)C1=C(CNCc2ccc(C)cc2)NC(=O)NC1c1cc(C)ccc1C (stereo not drawn) | inconclusive: 23.1 µM [inhibitor, single point] | –
27 | COC(=O)C1=C(C)NC(C)=C(C(=O)OCCN(C)Cc2ccccc2)C1c1cccc([N+](=O)[O-])c1 (stereo not drawn) | inconclusive: 20.6 µM [inhibitor, single point] | –
28 | Cc1ccc(Nc2nc(Cl)c(C=O)s2)cc1 | inconclusive: 16.4 µM [activator, partial curve, poor fit] | –
29 | Cc1ccccc1SCC(=O)Nc1cc(S(=O)(=O)N2CCOCC2)ccc1N1CCOCC1 | inconclusive: 29.1 µM [inhibitor, single point] | –
30 | CN1/C(=C\C(=O)COC(=O)CN2C(=O)C3CC=CCC3C2=O)C(C)(C)c2ccccc21 (stereo not drawn) | – | inactive: -19.4%
31 | Cc1csc(N/N=C/c2ccccc2F)n1 | inconclusive: 6.51 µM [activator, partial curve] | –
32 | COC(=O)c1ccc(Cl)c(NC(=O)Cc2ccccc2[N+](=O)[O-])c1 | inconclusive: 29.1 µM [activator, single point] | –
33 | CCOC(=O)C1=C(C)Nc2ccccc2N=C1NC(=O)c1cc(C)on1 | inconclusive: 29.1 µM [inhibitor, single point] | –
34 | COc1ccc(N2CCN(C(=O)c3ccc(Cl)c(S(=O)(=O)N4CCCC4)c3)CC2)cc1 | inconclusive: 29.1 µM [inhibitor, single point] | –
35 | COc1ccc(NC(=O)CN(C)S(=O)(=O)c2ccc3[nH]c(=O)oc3c2)cc1 | – | inactive: 5.95%
36 | O=C(NCCN1CCOCC1)c1cc(Sc2ccc(F)cc2F)nc2ccccc12 | inconclusive: 5.17 µM [inhibitor, single point] | –
37 | O=C(NC12CC3CC(CC(C3)C1)C2)N1CCN(S(=O)(=O)c2ccc(Cl)cc2)CC1 | – | inactive: 0.109%
38 | Cc1ccc(NC(=S)NC(=O)C2CCCC2)cc1C | inconclusive: 11.6 µM [activator, partial curve] | –
39 | COCCN1CCn2c(nc3cc(NC(C)=O)ccc32)C1 | inconclusive: 20.6 µM [activator, partial curve, poor fit] | –
40 | Cc1cc(C)c2nc(N3CCN(C(=O)c4cccs4)CC3)sc2c1 | inconclusive: 5.8 µM [activator, single point] | –
41 | Cc1cccc(Nc2ncnc(N)c2[N+](=O)[O-])n1 | inconclusive: 18.3 µM [inhibitor, partial curve] | –
42 | Fc1ccc2c(c1)C(c1ccc(N3CCOCC3)cc1)=NNC(c1cccs1)=N2 | inconclusive: 29.1 µM [inhibitor, single point] | –
43 | Cc1cc(C(F)(F)F)n2ncc(-c3ccccc3)c2n1 | inconclusive: 32.6 µM [activator, partial curve, poor fit] | –
